Substitutions are numbered along the chain they refer to. These are yes or no findings as the source states them, for the method shown. In cells and extracts the contact can be indirect. Some entries that bind do so weakly or less than the wild type. For part of these data: Sequences can lack the tags named with a protein.
What was measured:
[1] = molecular target: T1, GST fusion of FGFR2 residues 764-821 with P804A (C4) (UniProt P21802); experiment: pull-down; GST constructs on glutathione-sepharose beads incubated with lysate of HEK 293T cells transfected with TRPA1; western blot; only the target purified
T1 sequence: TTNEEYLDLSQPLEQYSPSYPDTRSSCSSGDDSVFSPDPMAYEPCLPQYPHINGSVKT

The chains behind the UniProt entries cited, without tags or fusion partners.
UniProt O75762: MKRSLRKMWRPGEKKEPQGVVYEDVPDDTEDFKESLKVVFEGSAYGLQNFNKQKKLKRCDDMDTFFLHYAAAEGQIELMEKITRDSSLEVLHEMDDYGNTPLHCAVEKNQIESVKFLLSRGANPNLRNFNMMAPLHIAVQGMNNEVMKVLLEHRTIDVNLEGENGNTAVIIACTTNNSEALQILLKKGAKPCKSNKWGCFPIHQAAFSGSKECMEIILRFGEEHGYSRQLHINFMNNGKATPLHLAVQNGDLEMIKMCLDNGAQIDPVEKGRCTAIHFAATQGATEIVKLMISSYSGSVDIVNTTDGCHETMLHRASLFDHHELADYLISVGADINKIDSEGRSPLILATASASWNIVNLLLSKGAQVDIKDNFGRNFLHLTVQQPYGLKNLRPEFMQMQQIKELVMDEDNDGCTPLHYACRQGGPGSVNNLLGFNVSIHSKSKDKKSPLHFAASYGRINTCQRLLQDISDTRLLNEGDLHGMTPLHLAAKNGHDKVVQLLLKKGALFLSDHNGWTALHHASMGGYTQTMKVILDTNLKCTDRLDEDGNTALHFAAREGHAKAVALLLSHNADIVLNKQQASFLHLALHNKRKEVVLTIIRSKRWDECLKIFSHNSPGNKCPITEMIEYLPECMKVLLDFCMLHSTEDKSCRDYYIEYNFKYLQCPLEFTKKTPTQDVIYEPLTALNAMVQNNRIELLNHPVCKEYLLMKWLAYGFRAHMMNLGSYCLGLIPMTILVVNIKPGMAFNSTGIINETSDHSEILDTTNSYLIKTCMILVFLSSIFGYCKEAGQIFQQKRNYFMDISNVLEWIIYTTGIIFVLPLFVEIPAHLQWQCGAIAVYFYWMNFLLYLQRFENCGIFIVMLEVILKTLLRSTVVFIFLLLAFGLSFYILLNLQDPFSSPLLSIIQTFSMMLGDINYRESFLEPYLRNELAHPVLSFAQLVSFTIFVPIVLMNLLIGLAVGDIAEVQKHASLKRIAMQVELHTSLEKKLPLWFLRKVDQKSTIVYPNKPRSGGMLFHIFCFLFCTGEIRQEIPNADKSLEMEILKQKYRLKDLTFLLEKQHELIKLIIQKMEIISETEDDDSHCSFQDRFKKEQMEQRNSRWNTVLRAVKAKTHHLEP

[2] = molecular target: T2, GST fusion of the last 58 amino acids of FGFR2 (residues 764-821), wild-type construct (C) (UniProt P21802); experiment: as above
T2 sequence: T1 sequence with A41P

[3] = molecular target: transient receptor potential ankyrin-1 (TRPA1), endogenous in HCC-515 cells (human (endogenous in HCC-515)) (UniProt O75762); experiment: proximity ligation; Duolink PLA in fixed HCC-515 cells with antibodies against endogenous FGFR2 and TRPA1
[4] = molecular target: transient receptor potential ankyrin-1 (TRPA1), endogenous in HCC-515 cells (human (endogenous in HCC-515)) (UniProt O75762); experiment: co-IP; HCC-515 lysate, IP with anti-TRPA1, IB for FGFR2; cells non-stimulated or stimulated with FGF9 and/or AITC
[5] = molecular target: FGFR2, Strep-tagged and FLAG-tagged copies co-transfected (UniProt P21802); experiment: proximity ligation; Duolink PLA in HEK 293T cells with antibodies against Strep-tagged and FLAG-tagged FGFR2, with or without TRPA1-GFP
[6] = molecular target: full-length GFP-tagged TRPA1 (TRPA1-GFP) (UniProt O75762); experiment: co-IP; HEK 293T cells co-transfected with TRPA1-GFP and FGFR2 (FL or ΔE); IP and IB with the indicated antibodies

full-length GFP-tagged TRPA1 (TRPA1-GFP) (from UniProt O75762 1-1119)
binding [1]: binds
binding [2]: binds

fibroblast growth factor receptor 2 (FGFR2), endogenous in HCC-515 cells (from UniProt P21802 22-821)
binding [3]: binds
binding [4]: binds

FGFR2, Strep-tagged and FLAG-tagged copies co-transfected (from UniProt P21802 22-821) (receptor)
binding [5]: binds

full-length FGFR2 (FL), transfected (from UniProt P21802 22-821) (receptor)
binding [6]: binds
